Holding throughout (experiment): PRISMA enrichment of interactor (LFQ) in peptide spot vs all other peptide spots (log2 fold change); higher = stronger / more specific binding of the interactor to the peptide
One assay concerns the target ACP1, P24666. Here is the method: (§1)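 PRISMA: 15-aa overlapping tiles (offset 8 aa) of 60 microproteins, plus SOS1/GLUT1 control peptides, were spot-synthesized on cellulose membranes in triplicate. Membranes were incubated with benzonase-treated HEK293T lysate, and bound proteins were identified by LC-MS/MS with LFQ. Enrichment is the log2 fold change of each protein in one spot versus all other spots. Only interactors passing the significance cutoff are listed.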

Sequences of proteins named here, by UniProt entry; tags and fusion partners are left off.
EIF3K, Q9UBQ5, UniProt Q9UBQ5, whole entry: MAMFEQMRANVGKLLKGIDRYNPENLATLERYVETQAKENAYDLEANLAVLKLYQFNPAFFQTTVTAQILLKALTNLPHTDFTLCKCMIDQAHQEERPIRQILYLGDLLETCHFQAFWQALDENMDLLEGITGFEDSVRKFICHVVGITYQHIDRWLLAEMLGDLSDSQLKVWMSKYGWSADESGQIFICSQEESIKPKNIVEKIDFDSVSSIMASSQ
HSP90B1, P14625, UniProt P14625, whole entry: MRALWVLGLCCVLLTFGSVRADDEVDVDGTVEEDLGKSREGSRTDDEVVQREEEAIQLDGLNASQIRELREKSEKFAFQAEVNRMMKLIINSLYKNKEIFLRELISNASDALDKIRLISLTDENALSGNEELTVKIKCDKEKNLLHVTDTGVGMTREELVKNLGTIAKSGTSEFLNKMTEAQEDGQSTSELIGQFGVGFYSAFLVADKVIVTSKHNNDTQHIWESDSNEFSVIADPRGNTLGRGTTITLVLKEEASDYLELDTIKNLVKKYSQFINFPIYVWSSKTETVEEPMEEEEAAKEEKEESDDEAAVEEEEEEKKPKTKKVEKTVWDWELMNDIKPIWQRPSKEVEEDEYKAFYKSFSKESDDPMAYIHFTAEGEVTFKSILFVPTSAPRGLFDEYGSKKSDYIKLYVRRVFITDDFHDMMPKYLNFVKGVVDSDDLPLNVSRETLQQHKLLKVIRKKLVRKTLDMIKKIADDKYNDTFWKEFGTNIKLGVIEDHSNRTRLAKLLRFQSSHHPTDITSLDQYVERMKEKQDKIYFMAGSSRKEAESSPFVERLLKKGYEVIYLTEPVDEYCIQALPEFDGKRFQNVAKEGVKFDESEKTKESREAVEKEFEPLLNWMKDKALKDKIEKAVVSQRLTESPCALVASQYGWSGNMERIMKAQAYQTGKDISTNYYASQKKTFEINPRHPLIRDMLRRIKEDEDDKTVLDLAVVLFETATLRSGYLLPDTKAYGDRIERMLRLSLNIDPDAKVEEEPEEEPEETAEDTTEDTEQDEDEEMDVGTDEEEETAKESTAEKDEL
PFN2, P35080, UniProt P35080, whole entry: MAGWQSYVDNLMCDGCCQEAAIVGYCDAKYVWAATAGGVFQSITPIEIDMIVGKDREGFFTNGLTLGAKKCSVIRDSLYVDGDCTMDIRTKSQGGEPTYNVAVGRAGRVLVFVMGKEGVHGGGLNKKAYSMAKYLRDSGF
CD2AP, Q9Y5K6, UniProt Q9Y5K6, whole entry: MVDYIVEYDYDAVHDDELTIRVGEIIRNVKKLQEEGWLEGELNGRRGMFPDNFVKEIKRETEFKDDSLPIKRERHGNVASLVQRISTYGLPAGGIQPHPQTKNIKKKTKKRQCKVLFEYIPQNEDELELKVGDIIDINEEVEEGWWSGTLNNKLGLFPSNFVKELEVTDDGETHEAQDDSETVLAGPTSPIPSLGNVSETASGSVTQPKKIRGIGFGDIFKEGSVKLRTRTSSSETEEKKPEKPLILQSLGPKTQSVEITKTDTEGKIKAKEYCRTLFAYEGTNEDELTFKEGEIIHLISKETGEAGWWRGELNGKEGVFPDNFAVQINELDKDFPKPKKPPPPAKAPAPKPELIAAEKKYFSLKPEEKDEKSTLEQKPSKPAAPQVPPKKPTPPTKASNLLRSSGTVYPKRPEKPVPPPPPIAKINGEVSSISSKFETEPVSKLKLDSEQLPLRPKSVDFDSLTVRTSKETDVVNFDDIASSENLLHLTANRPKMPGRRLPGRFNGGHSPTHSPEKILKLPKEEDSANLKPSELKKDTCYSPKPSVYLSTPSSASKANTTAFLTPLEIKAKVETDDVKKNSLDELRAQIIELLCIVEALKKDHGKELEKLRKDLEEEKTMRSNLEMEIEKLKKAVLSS
HIST1H1E, P10412, UniProt P10412, whole entry: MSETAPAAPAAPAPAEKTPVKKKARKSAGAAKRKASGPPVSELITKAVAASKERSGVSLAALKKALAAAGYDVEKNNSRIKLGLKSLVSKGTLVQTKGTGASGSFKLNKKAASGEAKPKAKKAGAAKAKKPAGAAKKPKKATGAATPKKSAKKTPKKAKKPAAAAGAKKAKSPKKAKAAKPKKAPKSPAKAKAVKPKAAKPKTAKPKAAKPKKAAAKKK
PARK7, Q99497, UniProt Q99497, whole entry: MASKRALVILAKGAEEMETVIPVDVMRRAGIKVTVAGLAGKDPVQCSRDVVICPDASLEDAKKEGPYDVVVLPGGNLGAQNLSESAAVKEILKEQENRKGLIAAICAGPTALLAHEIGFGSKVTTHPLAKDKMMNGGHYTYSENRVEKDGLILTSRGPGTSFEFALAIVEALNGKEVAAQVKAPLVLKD
ASCC3, Q8N3C0, UniProt Q8N3C0, whole entry: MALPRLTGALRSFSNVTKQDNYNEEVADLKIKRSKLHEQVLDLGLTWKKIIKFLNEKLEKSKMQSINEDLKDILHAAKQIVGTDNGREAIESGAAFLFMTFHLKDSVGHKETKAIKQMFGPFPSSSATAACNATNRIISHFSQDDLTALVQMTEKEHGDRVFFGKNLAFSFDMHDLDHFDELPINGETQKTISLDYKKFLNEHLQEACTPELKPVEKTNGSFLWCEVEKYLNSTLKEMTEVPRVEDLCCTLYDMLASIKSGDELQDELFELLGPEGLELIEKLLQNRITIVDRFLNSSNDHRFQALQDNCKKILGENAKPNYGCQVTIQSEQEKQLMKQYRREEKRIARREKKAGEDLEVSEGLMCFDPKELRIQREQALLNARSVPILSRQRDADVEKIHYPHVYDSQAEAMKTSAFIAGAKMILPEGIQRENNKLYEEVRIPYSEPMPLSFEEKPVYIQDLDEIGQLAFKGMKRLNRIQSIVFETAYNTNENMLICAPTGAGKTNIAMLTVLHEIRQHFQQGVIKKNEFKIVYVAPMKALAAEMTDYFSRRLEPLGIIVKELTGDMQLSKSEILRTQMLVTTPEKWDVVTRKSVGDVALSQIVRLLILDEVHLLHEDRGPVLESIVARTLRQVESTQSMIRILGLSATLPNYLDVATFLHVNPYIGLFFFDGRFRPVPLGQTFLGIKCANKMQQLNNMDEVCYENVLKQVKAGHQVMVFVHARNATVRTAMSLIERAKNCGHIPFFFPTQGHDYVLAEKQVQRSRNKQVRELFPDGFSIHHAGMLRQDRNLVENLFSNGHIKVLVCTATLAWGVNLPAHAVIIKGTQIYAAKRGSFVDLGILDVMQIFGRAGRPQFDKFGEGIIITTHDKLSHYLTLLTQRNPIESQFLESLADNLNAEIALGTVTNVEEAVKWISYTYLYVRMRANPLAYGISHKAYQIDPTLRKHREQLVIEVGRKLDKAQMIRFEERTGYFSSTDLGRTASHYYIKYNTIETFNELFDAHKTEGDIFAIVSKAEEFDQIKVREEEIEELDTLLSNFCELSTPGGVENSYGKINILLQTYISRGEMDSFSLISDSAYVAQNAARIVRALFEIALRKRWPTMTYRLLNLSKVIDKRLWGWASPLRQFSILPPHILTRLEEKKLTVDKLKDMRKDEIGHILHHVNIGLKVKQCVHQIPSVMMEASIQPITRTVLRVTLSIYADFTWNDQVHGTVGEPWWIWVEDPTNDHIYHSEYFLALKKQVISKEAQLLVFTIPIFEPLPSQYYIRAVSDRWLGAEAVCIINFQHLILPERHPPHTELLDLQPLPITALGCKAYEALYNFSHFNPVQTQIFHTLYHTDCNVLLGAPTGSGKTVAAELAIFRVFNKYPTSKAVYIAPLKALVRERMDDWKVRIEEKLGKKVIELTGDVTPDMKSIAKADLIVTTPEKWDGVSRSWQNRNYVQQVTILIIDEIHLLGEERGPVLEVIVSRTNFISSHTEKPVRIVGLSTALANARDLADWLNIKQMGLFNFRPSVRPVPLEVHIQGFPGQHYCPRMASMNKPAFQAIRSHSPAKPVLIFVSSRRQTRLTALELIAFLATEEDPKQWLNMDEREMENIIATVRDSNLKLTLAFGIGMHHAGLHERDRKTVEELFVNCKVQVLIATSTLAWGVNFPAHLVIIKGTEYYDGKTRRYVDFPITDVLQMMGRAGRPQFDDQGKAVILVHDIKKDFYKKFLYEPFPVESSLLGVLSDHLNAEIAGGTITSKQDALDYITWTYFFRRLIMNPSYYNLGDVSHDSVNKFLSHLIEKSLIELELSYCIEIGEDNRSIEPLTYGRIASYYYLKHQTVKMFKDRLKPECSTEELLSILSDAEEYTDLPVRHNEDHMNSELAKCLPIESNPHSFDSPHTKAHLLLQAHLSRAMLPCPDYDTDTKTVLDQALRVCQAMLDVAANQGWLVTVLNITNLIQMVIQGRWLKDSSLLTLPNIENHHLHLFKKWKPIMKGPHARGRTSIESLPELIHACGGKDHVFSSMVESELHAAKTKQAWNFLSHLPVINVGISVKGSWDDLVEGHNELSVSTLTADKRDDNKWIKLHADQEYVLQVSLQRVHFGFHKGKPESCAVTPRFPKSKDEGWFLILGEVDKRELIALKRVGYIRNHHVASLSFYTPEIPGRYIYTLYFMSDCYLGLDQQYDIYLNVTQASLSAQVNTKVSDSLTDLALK
COX7A2, P14406, UniProt P14406, whole entry: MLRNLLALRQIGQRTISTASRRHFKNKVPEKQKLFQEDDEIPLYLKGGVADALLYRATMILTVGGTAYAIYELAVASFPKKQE
TUBG1, P23258, UniProt P23258, whole entry: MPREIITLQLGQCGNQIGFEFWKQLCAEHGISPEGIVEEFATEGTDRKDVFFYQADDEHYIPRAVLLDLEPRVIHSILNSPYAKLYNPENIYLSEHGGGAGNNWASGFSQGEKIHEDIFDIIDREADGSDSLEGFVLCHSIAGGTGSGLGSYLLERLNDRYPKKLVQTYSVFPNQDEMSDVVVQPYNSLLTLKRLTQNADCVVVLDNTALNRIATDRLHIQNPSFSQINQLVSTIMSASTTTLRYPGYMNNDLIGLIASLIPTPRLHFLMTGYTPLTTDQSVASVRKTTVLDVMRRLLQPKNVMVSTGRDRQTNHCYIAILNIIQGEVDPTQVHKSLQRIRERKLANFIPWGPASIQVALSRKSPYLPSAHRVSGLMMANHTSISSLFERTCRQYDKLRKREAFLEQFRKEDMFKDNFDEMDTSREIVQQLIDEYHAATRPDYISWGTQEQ
CBX2, Q14781, UniProt Q14781, whole entry: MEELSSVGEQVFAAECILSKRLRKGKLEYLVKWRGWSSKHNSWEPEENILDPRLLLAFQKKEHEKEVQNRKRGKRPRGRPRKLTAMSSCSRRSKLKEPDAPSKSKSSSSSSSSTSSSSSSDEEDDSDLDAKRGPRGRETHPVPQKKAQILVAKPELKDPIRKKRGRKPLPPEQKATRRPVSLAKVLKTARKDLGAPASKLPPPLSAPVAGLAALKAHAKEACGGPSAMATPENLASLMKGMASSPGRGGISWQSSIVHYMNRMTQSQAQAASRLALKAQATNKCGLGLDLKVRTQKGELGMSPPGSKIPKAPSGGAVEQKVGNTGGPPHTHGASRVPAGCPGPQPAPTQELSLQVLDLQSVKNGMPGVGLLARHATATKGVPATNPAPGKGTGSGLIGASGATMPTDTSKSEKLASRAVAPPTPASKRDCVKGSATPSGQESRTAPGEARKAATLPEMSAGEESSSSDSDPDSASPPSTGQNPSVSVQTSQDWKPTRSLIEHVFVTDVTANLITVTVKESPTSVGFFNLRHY
CLPP, Q16740, UniProt Q16740, whole entry: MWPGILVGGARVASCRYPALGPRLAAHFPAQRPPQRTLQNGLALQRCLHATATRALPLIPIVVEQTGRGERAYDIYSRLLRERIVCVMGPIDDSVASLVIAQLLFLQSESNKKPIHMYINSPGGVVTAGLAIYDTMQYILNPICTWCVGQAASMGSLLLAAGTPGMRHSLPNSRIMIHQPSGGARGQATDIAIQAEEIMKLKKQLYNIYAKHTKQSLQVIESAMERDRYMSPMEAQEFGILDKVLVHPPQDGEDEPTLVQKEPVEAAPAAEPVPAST
PLK1, P53350, UniProt P53350, whole entry: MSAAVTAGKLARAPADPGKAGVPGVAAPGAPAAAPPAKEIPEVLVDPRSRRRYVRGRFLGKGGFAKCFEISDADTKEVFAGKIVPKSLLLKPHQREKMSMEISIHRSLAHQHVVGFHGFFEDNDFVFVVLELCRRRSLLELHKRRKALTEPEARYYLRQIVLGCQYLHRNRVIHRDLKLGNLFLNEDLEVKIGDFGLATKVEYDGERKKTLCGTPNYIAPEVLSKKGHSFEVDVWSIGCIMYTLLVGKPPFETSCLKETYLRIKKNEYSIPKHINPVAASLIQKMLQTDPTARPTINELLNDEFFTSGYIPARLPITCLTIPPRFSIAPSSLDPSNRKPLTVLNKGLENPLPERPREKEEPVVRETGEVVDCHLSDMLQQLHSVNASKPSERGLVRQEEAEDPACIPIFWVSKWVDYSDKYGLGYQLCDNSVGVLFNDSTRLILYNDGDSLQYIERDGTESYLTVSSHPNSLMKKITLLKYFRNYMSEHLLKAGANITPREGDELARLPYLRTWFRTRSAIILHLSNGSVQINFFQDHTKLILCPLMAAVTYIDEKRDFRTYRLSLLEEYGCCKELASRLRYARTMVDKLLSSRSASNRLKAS
RAB7A, P51149, UniProt P51149, whole entry: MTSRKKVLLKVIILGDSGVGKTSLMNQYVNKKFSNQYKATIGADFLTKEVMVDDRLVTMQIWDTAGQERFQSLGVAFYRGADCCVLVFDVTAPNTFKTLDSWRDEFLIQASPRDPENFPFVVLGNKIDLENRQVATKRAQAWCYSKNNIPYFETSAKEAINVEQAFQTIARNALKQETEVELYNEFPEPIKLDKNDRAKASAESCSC

For a further assay, the target named is CNN3, Q15417. Here is the method:
as §1

A further assay deals with COA7, Q96BR5. Here is the method: as §1
The next assay concerns the target DBR1, Q9UK59. Here is the method:
as §1

Another assay has as its target EIF3K, Q9UBQ5. Here is the method: as §1
The next assay has as its target FBXW11, Q9UKB1. Here is the method:
as §1

For the next assay, the target named is GCC2, Q8IWJ2. Here is the method: as §1
The target of a further assay is HMGB3, O15347. Here is the method:
as §1

In another assay the target is HSP90B1, P14625. Here is the method:
as §1

The next assay has as its target LUC7L2, Q9Y383. Here is the method:
as §1

Another assay has as its target MAGEB2, O15479. Here is the method: as §1
The target of a further assay is MRPL14, Q6P1L8. Here is the method: as §1
A further assay addresses MRPL54, Q6P161. Here is the method: as §1
Another assay deals with MRPS34, P82930. Here is the method: as §1
The next assay has as its target MRPS36, P82909. Here is the method:
as §1

For the next assay, the target named is ODF2, Q5BJF6. Here is the method: as §1
Another assay deals with ORMDL3, Q8N138. Here is the method:
as §1

For a further assay, the target named is PDK3, Q15120. Here is the method:
as §1

The next assay addresses PFN2, P35080. Here is the method: as §1
The target of the next assay is PRKCSH, P14314. Here is the method:
as §1

In the next assay the target is CD2AP, Q9Y5K6. Here is the method:
as §1

The target in another assay is CHERP, Q8IWX8. Here is the method:
as §1

For a further assay, the target named is CPSF2, Q9P2I0. Here is the method:
as §1

For the next assay, the target named is FKBP4, Q02790. Here is the method:
as §1

The next assay deals with GRB2, P62993. Here is the method:
as §1

The next assay addresses HIST1H1E, P10412. Here is the method: as §1
Another assay addresses MRPL2, Q5T653. Here is the method: as §1
The target of a further assay is PACSIN2, Q9UNF0. Here is the method:
as §1

The next assay deals with PARK7, Q99497. Here is the method:
as §1

The target in a further assay is PRIM1, P49642. Here is the method: as §1
Another assay has as its target RBM12B, Q8IXT5. Here is the method:
as §1

Another assay addresses RUSC1, Q9BVN2. Here is the method: as §1
A further assay concerns the target SFSWAP, Q12872. Here is the method: as §1
In another assay the target is SH3GL1, Q99961. Here is the method:
as §1

The target of another assay is STIP1, P31948. Here is the method: as §1
For the next assay, the target named is ANP32A, P39687. Here is the method: as §1
The next assay deals with ARHGEF7, Q14155. Here is the method:
as §1

The next assay has as its target ASCC3, Q8N3C0. Here is the method: as §1
A further assay addresses BIN1, O00499. Here is the method:
as §1

The target of the next assay is CGGBP1, Q9UFW8. Here is the method:
as §1

Another assay has as its target CLPTM1, O96005. Here is the method:
as §1

The target of the next assay is COX7A2, P14406. Here is the method:
as §1

The target of another assay is EPS15L1, Q9UBC2. Here is the method:
as §1

A further assay deals with FADS1, O60427. Here is the method:
as §1

In another assay the target is GTPBP10, A4D1E9. Here is the method: as §1
A further assay addresses NCK1, P16333. Here is the method: as §1
Another assay addresses NOM1, Q5C9Z4. Here is the method:
as §1

In a further assay the target is PACSIN3, Q9UKS6. Here is the method:
as §1

Another assay deals with PSMA7, O14818. Here is the method: as §1
Another assay concerns the target SNX9, Q9Y5X1. Here is the method:
as §1

A further assay addresses TUBG1, P23258. Here is the method:
as §1

The next assay addresses CBX2, Q14781. Here is the method:
as §1

For another assay, the target named is CDIPT, O14735. Here is the method: as §1
The target in another assay is CLPP, Q16740. Here is the method: as §1
The target of a further assay is CPNE3, O75131. Here is the method: as §1
The next assay addresses ESF1, Q9H501. Here is the method: as §1
The target in the next assay is GDI2, P50395. Here is the method:
as §1

Another assay concerns the target HSPBP1, Q9NZL4. Here is the method: as §1
Another assay has as its target KIF2A, O00139. Here is the method: as §1
A further assay deals with MACF1. Here is the method:
as §1

The next assay concerns the target MRPS2, Q9Y399. Here is the method: as §1
The target in the next assay is MRPS5, P82675. Here is the method: as §1
The target in another assay is MTOR, P42345. Here is the method: as §1
The target of another assay is PLK1, P53350. Here is the method: as §1
The target in another assay is POLDIP3, Q9BY77. Here is the method:
as §1

A further assay deals with PWWP2A, Q96N64. Here is the method:
as §1

Another assay deals with RAB7A, P51149. Here is the method:
as §1

The next assay addresses SUPT6H, Q7KZ85. Here is the method:
as §1

The next assay concerns the target UFL1, O94874. Here is the method:
as §1

This is one part of the list. The list holds hits alone, and they repeat only in part.

On to TSSCRSSLSAPAAWA [RAB12], for which the “PRISMA enrichment of interactor (log2)” value worked out at 6.05 in the assay with ACP1, P24666; 6.46 with CNN3, Q15417; 4.38 in the assay with COA7, Q96BR5; 4.03 in the assay with DBR1, Q9UK59; 4.34 with EIF3K, Q9UBQ5; 5.05 in the assay with FBXW11, Q9UKB1. In addition, the “PRISMA enrichment of interactor (log2)” value with GCC2, Q8IWJ2 is 4.35; with HMGB3, O15347, 6.73; with HSP90B1, P14625, 6.04; in the assay with LUC7L2, Q9Y383, 4.03; in the assay with MAGEB2, O15479 it was 6.06; with MRPL14, Q6P1L8, 5.94. Further, the “PRISMA enrichment of interactor (log2)” value with MRPL54, Q6P161 was determined as 4.4; with MRPS34, P82930, 7.46; with MRPS36, P82909 it was 3.88; with ODF2, Q5BJF6, 5.33; with ORMDL3, Q8N138 it was 4.59; with PDK3, Q15120, 5.16. In addition, the “PRISMA enrichment of interactor (log2)” value was 4.53 in the assay with PFN2, P35080 and 7.15 in the assay with PRKCSH, P14314.
EVPVPPPVPPRRRP [SOS1_WT_1]: the “PRISMA enrichment of interactor (log2)” value is 4.76 in the assay with ACP1, P24666; 5.75 with CD2AP, Q9Y5K6; 5.1 with CHERP, Q8IWX8; 7.9 with CPSF2, Q9P2I0; 6.24 with FKBP4, Q02790; 7.18 in the assay with GRB2, P62993. The “PRISMA enrichment of interactor (log2)” value in the assay with HIST1H1E, P10412 was 6.57; with MRPL2, Q5T653, 3.57; with PACSIN2, Q9UNF0 it was 6.41; with PARK7, Q99497, 5.33; with PRIM1, P49642 it was 4.17; with RBM12B, Q8IXT5 it was 6.54. The “PRISMA enrichment of interactor (log2)” value with RUSC1, Q9BVN2 is 5.71; in the assay with SFSWAP, Q12872 it was 4.37; with SH3GL1, Q99961, 5.52; with STIP1, P31948 it was 6.41.
As to EVPVPPPVPPRRRP [SOS1_WT_2], the “PRISMA enrichment of interactor (log2)” value was 4.93 with ACP1, P24666; 6.02 in the assay with ANP32A, P39687; 3.62 with ARHGEF7, Q14155; 5.35 with ASCC3, Q8N3C0; 4.12 with BIN1, O00499; 6.42 in the assay with CD2AP, Q9Y5K6. In addition, the “PRISMA enrichment of interactor (log2)” value was determined as 5.31 in the assay with CGGBP1, Q9UFW8; 4.44 with CLPTM1, O96005; 4.67 with COX7A2, P14406; 3.81 with EPS15L1, Q9UBC2; 5.37 with FADS1, O60427; 7.04 with GRB2, P62993. The “PRISMA enrichment of interactor (log2)” value with GTPBP10, A4D1E9 was determined as 5.27; with HIST1H1E, P10412 it was 5.53; with NCK1, P16333, 3.76; with NOM1, Q5C9Z4, 7.11; with PACSIN2, Q9UNF0, 7.74; with PACSIN3, Q9UKS6, 4.32. Further, the “PRISMA enrichment of interactor (log2)” value turned out to be 5.11 with PARK7, Q99497; 4.89 in the assay with PRIM1, P49642; 6.16 with PSMA7, O14818; 6.85 with RBM12B, Q8IXT5; 6.32 with RUSC1, Q9BVN2; 6.06 with SH3GL1, Q99961. In addition, the “PRISMA enrichment of interactor (log2)” value came out at 4.4 with SNX9, Q9Y5X1 and 5.44 in the assay with TUBG1, P23258.
For AATAHSYPRRFSTLL [IFRD1], the “PRISMA enrichment of interactor (log2)” value stood at 5.04 in the assay with ACP1, P24666; 6.22 in the assay with CBX2, Q14781; 8.16 in the assay with CDIPT, O14735; 7.87 in the assay with CLPP, Q16740; 5.12 with CPNE3, O75131; 4.54 with ESF1, Q9H501. The “PRISMA enrichment of interactor (log2)” value was determined as 5.35 with GDI2, P50395; 4.57 with HSPBP1, Q9NZL4; 5.7 with KIF2A, O00139; 5.73 with MACF1; 5.38 in the assay with MRPS2, Q9Y399; 6.02 in the assay with MRPS5, P82675. Besides, the “PRISMA enrichment of interactor (log2)” value with MTOR, P42345 came out at 9.71; with PLK1, P53350 it was 6.15; in the assay with POLDIP3, Q9BY77, 6.31; with PWWP2A, Q96N64, 4.6; with RAB7A, P51149, 5.66; with SUPT6H, Q7KZ85 it was 5.15. The “PRISMA enrichment of interactor (log2)” value with UFL1, O94874 came out at 4.8.

For the origin of these results see the supplement of paper PMC10032668.
